The source of these data is publication PMC3084845.

By UniProt entry, the sequences of proteins in these tests, tags left out.
UniProt Q13118: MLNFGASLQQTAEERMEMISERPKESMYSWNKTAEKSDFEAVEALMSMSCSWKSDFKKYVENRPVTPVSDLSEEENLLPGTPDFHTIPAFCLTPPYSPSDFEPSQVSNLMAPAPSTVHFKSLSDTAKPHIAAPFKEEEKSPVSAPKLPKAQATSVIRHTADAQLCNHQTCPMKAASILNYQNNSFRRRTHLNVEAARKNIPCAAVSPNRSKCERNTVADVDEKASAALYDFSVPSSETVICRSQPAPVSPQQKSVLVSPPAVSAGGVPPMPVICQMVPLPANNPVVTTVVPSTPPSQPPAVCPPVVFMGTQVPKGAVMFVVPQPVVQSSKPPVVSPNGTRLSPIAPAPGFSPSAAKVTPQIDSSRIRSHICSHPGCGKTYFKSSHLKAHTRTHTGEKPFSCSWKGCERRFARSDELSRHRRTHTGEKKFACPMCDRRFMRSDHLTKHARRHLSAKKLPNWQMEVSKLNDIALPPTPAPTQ
UniProt Q08775: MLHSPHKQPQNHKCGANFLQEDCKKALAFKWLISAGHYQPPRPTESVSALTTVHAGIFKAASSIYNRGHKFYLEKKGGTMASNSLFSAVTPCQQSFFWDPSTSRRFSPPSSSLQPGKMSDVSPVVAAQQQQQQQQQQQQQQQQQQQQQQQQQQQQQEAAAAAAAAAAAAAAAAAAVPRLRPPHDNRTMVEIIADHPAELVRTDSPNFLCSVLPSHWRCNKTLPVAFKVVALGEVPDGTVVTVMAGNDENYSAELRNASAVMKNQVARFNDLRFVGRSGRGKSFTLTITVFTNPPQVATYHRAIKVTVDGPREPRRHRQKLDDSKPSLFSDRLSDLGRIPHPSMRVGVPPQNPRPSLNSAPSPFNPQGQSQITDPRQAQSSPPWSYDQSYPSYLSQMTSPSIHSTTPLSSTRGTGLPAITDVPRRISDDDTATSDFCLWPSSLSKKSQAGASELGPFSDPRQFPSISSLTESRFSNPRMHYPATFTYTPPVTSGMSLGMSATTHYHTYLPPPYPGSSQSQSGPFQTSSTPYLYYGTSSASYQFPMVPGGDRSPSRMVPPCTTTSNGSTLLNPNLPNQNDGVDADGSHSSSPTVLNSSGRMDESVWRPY

No constants are given. Whether binding was seen depends on the method and setting. Binding seen in cells or lysates may run through a third protein. Some entries that bind do so weakly or less than the wild type.

For assay [1], the target named is TGFβ inducible early gene-1 (TIEG1), full length (1-480 aa), Flag-tagged (UniProt Q13118). Briefly: co-IP; U2OS cells co-transfected with TIEG1 and Runx2 expression constructs for 24 hours, lysed in RIPA buffer; immunoprecipitated at 4°C overnight with rabbit IgG, Runx2 M-70 antibody or TIEG1 polyclonal antibody #992, protein G beads; western blotting with reciprocal antibodies. (In general: In western blotting, separated proteins are transferred to a membrane and probed.)

A further assay concerns the target Runx2 (UniProt Q08775). The description is as above.

Regarding Runx2 (from UniProt Q08775 1-607), the binding result in assay [1] is “binds”.
For “TGFβ inducible early gene-1 (TIEG1), full length (1-480 aa), Flag-tagged (from UniProt Q13118 1-480)”, the binding result with Runx2 is reported as “binds”.
